# From article PMC11077062
# Protein sequences, listed by entry. Tags and fused reporters are not part of them. Lines headed by an entry give the natural chain unless they say otherwise; changes in a name come on top.
# UniProt P9WGY9: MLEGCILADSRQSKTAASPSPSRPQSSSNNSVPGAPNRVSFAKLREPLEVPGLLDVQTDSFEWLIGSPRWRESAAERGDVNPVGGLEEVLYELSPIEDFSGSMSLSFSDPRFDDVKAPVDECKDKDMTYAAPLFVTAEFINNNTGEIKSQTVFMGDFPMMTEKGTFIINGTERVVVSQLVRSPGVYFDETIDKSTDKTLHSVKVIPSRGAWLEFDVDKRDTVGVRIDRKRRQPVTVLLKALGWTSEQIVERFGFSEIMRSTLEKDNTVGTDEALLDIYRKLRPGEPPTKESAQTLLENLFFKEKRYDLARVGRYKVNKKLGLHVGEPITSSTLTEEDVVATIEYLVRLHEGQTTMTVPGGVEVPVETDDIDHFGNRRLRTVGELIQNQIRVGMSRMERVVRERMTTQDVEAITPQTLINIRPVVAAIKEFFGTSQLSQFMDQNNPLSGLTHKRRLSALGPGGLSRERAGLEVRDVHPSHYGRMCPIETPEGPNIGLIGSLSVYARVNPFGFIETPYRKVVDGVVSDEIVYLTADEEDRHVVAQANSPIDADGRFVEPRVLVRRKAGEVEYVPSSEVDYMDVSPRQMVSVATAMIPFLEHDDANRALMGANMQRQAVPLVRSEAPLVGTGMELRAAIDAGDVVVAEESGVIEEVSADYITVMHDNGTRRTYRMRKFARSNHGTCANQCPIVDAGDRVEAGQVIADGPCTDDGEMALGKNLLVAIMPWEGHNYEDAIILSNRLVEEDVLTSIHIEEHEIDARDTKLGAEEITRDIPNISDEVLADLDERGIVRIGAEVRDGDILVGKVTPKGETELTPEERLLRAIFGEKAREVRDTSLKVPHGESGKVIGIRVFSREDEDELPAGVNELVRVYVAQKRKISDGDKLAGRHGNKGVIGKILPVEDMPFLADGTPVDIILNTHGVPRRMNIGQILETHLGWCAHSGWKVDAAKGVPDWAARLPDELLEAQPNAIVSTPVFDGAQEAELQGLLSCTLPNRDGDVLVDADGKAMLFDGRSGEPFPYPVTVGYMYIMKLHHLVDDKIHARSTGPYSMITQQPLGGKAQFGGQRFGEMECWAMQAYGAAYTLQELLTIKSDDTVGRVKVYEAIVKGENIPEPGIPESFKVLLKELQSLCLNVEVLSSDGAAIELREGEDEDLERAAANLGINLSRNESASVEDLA
# UniProt P9WGI1: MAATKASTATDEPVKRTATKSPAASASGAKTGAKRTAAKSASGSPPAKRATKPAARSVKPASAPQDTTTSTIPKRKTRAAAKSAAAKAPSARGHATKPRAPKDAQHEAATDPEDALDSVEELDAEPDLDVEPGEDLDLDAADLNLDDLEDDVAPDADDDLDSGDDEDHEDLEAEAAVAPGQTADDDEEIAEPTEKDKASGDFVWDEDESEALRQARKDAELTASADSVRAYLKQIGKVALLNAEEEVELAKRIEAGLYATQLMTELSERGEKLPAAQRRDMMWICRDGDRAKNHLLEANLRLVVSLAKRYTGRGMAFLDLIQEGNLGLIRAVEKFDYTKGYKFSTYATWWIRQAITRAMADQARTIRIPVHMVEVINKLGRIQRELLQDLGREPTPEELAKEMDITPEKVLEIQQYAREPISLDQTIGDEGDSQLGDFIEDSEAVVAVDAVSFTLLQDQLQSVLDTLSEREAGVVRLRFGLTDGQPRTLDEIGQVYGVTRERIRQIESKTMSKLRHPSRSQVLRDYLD
# UniProt A0QSL8: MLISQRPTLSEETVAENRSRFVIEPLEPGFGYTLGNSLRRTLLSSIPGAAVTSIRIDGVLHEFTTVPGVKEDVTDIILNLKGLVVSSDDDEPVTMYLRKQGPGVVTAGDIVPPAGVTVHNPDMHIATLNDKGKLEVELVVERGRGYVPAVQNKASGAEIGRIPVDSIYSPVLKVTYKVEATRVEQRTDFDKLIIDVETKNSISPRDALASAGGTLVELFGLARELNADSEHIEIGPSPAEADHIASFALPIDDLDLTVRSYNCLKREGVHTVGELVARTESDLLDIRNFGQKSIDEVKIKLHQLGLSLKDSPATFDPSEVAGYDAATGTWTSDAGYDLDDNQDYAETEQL
# UniProt P9WGZ1: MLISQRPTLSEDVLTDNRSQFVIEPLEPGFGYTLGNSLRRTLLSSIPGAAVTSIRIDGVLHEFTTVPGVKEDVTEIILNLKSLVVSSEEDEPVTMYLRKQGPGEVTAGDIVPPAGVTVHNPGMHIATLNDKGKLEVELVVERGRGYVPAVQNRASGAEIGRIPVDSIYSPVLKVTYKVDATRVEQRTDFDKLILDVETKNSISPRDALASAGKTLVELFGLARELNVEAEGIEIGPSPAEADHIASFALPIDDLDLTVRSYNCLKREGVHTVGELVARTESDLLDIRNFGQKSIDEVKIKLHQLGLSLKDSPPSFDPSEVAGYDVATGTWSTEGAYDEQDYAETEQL
# UniProt P9WGY7: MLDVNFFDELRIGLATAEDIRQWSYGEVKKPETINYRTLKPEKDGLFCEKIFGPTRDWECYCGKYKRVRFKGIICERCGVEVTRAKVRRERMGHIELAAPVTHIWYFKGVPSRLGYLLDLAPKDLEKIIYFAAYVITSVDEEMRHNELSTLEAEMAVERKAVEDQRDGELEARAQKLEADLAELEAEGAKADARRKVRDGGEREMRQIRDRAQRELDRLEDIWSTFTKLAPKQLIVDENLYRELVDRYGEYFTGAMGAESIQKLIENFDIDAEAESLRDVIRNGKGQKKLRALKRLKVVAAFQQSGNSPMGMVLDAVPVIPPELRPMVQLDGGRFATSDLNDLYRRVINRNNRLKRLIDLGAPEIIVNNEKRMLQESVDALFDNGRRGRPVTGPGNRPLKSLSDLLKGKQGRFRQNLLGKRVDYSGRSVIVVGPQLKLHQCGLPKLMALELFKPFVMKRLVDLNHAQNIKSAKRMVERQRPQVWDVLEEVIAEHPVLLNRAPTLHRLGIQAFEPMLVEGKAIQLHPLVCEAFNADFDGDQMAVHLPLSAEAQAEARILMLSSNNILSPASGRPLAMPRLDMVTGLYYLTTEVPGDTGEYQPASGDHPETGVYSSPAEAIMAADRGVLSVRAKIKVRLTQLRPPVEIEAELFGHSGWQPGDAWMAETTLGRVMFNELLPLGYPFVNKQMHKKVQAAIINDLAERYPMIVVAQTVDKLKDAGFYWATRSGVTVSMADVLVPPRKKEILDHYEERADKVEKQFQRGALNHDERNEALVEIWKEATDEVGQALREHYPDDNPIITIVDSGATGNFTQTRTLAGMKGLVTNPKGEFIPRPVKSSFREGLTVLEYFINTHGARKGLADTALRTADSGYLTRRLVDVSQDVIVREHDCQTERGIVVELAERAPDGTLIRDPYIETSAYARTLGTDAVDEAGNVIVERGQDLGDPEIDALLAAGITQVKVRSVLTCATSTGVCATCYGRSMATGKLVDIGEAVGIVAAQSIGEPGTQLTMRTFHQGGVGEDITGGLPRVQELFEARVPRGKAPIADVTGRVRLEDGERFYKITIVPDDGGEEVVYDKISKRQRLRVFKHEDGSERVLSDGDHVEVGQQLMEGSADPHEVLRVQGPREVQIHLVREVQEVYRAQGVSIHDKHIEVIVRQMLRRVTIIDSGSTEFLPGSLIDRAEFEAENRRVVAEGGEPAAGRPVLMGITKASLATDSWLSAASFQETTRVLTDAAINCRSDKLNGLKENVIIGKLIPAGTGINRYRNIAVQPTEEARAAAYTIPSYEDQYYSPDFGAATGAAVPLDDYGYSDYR
# These are yes or no findings as the source states them, for the method shown. Binding seen in cells or lysates may run through a third protein. Some entries that bind do so weakly or less than the wild type. For some of these results: Where a sequence is shown, tags or fusion partners need not be part of it.
# Legend:
# [1] = target: T1, σ factor σ^B (Mycobacterium smegmatis) (Mycobacterium smegmatis (endogenous in M. smegmatis mc2 155)) (UniProt A0QVZ5); experiment: co-IP; M. smegmatis lysates (exponential, stationary; also mitomycin C-treated cells); anti-RNAP β [8RB13] or anti-σ70 [2G10] on Protein G plus agarose, 16-18 h at 4°C, 20 mM Tris-HCl pH 7.9, 150 mM KCl, 1 mM MgCl2; silver-stained SDS-PAGE, MALDI-TOF, western blot
# T1 sequence: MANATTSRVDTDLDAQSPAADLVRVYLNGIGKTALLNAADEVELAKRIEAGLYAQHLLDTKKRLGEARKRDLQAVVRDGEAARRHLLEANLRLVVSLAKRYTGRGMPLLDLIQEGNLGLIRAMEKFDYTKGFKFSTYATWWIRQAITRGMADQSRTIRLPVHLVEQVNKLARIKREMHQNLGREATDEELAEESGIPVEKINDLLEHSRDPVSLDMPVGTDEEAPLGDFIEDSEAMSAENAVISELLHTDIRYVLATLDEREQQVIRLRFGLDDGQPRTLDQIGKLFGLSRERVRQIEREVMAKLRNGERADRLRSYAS
# [2] = target: RNA polymerase β subunit (Mycobacterium tuberculosis) (Mycobacterium tuberculosis (endogenous in M. tuberculosis H37Rv)) (UniProt P9WGY9); experiment: co-IP; M. tuberculosis H37Rv early stationary phase lysate; anti-RNAP β [8RB13] or anti-σ70 [2G10] on Protein G plus agarose, 4 h at 4°C, 20 mM Tris-HCl pH 7.9, 150 mM KCl, 1 mM MgCl2; SDS-PAGE and western blot
# [3] = target: primary σ factor σ^A (Mycobacterium tuberculosis) (Mycobacterium tuberculosis (endogenous in M. tuberculosis H37Rv)) (UniProt P9WGI1); experiment: as above
Substance,binding [1],binding [2],binding [3]
"RNA polymerase (RNAP) of Mycobacterium smegmatis, named as a whole (from UniProt A0QSL8 1-350; P60281 1-1169; A0QS66 1-1317; A0QWT1 1-107) (complex)",binds,,
RNA polymerase α subunit (Mycobacterium tuberculosis) (from UniProt P9WGZ1 1-347),,binds,
RNA polymerase β′ subunit (Mycobacterium tuberculosis) (from UniProt P9WGY7 1-1316),,binds,binds
